# Values from PubChem BioAssay AID1671195 (Yale University, 2021)
# Aim: 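Regulators of LDL receptor activity judged by labelled LDL uptake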 (primary screen)
# Cells: human Huh7 hepatoma cells
# Knock-down reagent: siRNA pool against human genes, 18 nM
# Time to read-out: about 2 to 2.5 days of knockdown, then 8 h LDL uptake
# Conditions: DiI-labelled LDL at 30 µg/ml for 8 h, in lipoprotein-deficient serum medium
# Measured: 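Per-cell DiI-LDL intensity by automated imaging; well means scaled to the plate median and given as a robust z-score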
# Reading the numbers: robust z-score: higher = more LDL uptake after knockdown
# Active means: 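a gene counts as active if at least two replicate z-scores exceed ±2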
# This is one part, drawn at random, of about 22,000 deposited reagents. Of all reagents, about 1,510 (6.9%) got an active call. 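Active includes knockdowns raising or lowering LDL uptake; positive z-scores mean more uptake, negative mean less.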
gene,"robust z-score, replicate 1","robust z-score, replicate 2","robust z-score, replicate 3",outcome
MS4A7,0.885,0.0285,0.38,inactive
GRIA4,-0.364,0.179,0.119,inactive
ELMO1,-1.17,0.229,-0.212,inactive
NUDT7,2.03,2.41,1.55,active
PHGDH,-0.289,0.38,0.0242,inactive
ZC3H18,-0.573,0.28,0.192,inactive
KLHL33,-1.58,-1.07,-0.765,inactive
CREBRF,-0.00312,-0.821,0.385,inactive
LGR6,-0.958,-0.634,0.125,inactive
LOC147294 (retired record),-0.902,-0.265,-0.661,inactive
ARG1,0.0809,0.187,0.399,inactive
SNX9,-0.353,-0.429,-0.522,inactive
ST6GALNAC1,-0.494,-0.514,-0.448,inactive
C10orf95,-0.774,-1.11,-1.26,inactive
NTNG2,0.969,1.27,1.1,inactive
LOC339819 (retired record),-0.76,-0.53,-0.573,inactive
ANKRD40,-0.867,-0.0821,-0.298,inactive
CCDC125,0.836,1.25,1.37,inactive
ATG16L1,-1.24,-1.17,0.455,inactive
LOC442651 (retired record),0.434,0.129,0.0459,inactive
CDCA2,-0.111,-0.109,-0.369,inactive
ZNF764,-0.697,-0.43,-0.68,inactive
SEMA7A,-0.683,-0.606,-0.523,inactive
LOXL2,-2.17,-2.18,-2.1,active
LOC219638 (retired record),-0.252,-0.569,-0.348,inactive
LOC441146 (retired record),0.757,0.761,0.718,inactive
DNAJC24,0.162,-0.0772,0.164,inactive
KLRG1,-1.17,-0.865,-0.515,inactive
ACTG1,0.0632,0.195,0.321,inactive
OR56A1,0.0362,-0.449,-0.948,inactive
LRFN5,-1.07,-1.01,-0.222,inactive
CCDC159,-0.291,-0.201,-0.221,inactive
ACP5,0.147,-0.0128,0.381,inactive
CAPZA2,-0.232,0.241,-0.327,inactive
KRT76,-0.539,-0.0457,-0.889,inactive
MYL1,2.06,2.2,2.9,active
TBX3,-0.749,1.21,0.207,inactive
APOBR,1.08,0.311,1,inactive
DHX9,1.23,1.31,2.34,inactive
INA,1.33,0.313,1.06,inactive
CLOCK,-1.4,-0.82,-1.16,inactive
LOC389100 (retired record),0.311,-0.291,-0.476,inactive
GALNT10,1.88,1.76,1.71,inactive
PSMD6,2.9,2.28,0.634,active
TOP1,0.331,0.535,0.479,inactive
ELF2,2.89,2.1,4.02,active
TUBD1,1.06,1.79,1.73,inactive
ARAP2-AS1,-0.0438,-0.452,-0.0297,inactive
TMIGD1,0.928,0.901,0.687,inactive
GOLGB1,-0.687,-0.0481,-0.676,inactive
LOC339902,0.928,0.35,0.63,inactive

Not a retest: 6 of the entries above.
gene,"robust z-score, replicate 1","robust z-score, replicate 2","robust z-score, replicate 3",outcome
CREBRF,-0.00312,-0.821,0.385,inactive
LGR6,-0.958,-0.634,0.125,inactive
LOC147294 (retired record),-0.902,-0.265,-0.661,inactive
ARG1,0.0809,0.187,0.399,inactive
SNX9,-0.353,-0.429,-0.522,inactive
ST6GALNAC1,-0.494,-0.514,-0.448,inactive
